# Some of the results follow. The main result of the screen is listed elsewhere. These columns were measured beside it and carry no call. Residues, ends and D or L forms follow the SMILES beside them. *: point of attachment. Cbz = O=C(OCc1ccccc1)*
# Protein sequences, listed by entry. Tags and fused reporters are not part of them.
# UniProt P03372, whole entry, looked up: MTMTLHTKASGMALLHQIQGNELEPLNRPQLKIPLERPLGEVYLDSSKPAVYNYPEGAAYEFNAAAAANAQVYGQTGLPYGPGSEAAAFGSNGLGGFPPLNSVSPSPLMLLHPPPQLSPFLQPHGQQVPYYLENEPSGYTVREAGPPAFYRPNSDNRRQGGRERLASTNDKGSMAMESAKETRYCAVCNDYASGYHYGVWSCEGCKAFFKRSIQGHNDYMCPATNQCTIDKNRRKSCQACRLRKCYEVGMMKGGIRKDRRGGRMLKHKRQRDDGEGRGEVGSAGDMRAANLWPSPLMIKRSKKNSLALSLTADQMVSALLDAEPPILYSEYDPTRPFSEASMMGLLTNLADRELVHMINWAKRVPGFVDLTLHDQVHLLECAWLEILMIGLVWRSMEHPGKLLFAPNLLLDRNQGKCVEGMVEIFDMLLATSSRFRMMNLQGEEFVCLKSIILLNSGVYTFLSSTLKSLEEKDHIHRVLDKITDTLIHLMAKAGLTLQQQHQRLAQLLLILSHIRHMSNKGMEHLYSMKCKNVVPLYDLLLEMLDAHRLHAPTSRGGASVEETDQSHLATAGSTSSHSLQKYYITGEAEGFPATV
# Target: Estrogen receptor (Homo sapiens) (UniProt P03372)
# Assay: blockers of coactivator recruitment to ERα – biochemical, LOPAC library, TR-FRET, primary screen (AID 694);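 note: receptor was agonist-bound with estradiol present during the assay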
# Settings: TR-FRET ERalpha-coactivator peptide binding, at 15 µM, stronger effect = higher value
row,SMILES,inhibition [%]
1,CCCCOc1cc(CC2CNC(=O)N2)ccc1OC (centres undefined),1.94
2,CC(C)(C)NCC(O)COc1cccc2[nH]c(=O)[nH]c12 (centres undefined),3.87
3,CCCOc1ccccc1-c1nc2n[nH]nc2c(=O)[nH]1,1.89
4,COc1cccc(C(=O)NCCN2CCN(c3ccc(Cl)cc3)CC2)c1,3.58
5,CN(C)C(=O)Oc1ccc[n+](C)c1,1.65
6,Nc1c2c(nc3ccccc13)CCCC2O (centres undefined),-2.77
7,O=C(O)CP(=O)(O)O,2.79
8,Cn1ccc2cc3c(cc21)CCN3C(=O)Nc1cccnc1,6.62
9,CCN(CC)CCCCCCCCOC(=O)c1cc(OC)c(OC)c(OC)c1,-0.7
10,N#C/C(=C\c1ccc(O)c(O)c1)C(=O)NCc1ccccc1,2.03
11,C#CCn1c(=O)c2c(ncn2C)n(C)c1=O,-5.36
12,CCCN(CCc1ccccc1)C1CCc2c(O)cccc2C1 (centres undefined),0.98
13,O=C(O)C1=CCCN(CCON=C(c2ccccc2)c2ccccc2)C1,-8.58
14,CCN(c1nc(N)c(C(=O)N=C(N)N)nc1Cl)C(C)C,-2.21
15,CO/N=C(\C(=O)N[C@@H]1C(=O)N2C(C(=O)O)=C(CSc3nc(=O)c(O)nn3C)CSC12)c1csc(N)n1 (some centres undefined),3.04
16,CNC(=O)[C@H]1O[C@@H](n2cnc3c(N)ncnc32)C(O)[C@H]1O (some centres undefined),-1.45
17,CC(C)(CO)Cc1cc(C(C)(C)C)c(O)c(C(C)(C)C)c1,-7.02
18,C#CCN(C)CCCOc1ccc(Cl)cc1Cl,-1.39
19,CCCn1cnc2c1c(=O)n(CCCCC(C)=O)c(=O)n2C,5.12
20,CC(=O)/C(C)=N/O,-3.28
21,CC(C)NCC(O)c1cc(O)cc(O)c1 (centres undefined),-1.51
22,COCC(=O)O[C@]1(CCN(C)CCCc2nc3ccccc3[nH]2)CCc2cc(F)ccc2[C@@H]1C(C)C,-1.31
23,C=C1C(=O)O[C@@H]2[C@H]3O[C@]3(C)CCC=C(C)CC[C@@H]12,3.58
24,CNCCCN1c2ccccc2CCc2ccccc21,-4.5
25,Cc1cccc(C(=O)NCN2CCN(c3ccccc3C#N)CC2)c1,-4

row,SMILES,inhibition [%]
1,NC1(C(=O)O)CCc2cc(C(=O)O)ccc21 (centres undefined),-2.64
2,Fc1ccc([C@@H]2CCNC[C@H]2COc2ccc3c(c2)OCO3)cc1,-7
3,Cc1cc(O)c2c(c1)C(=O)c1cc(O)cc(O)c1C2=O,3.1
4,Nc1ccc2c3c(cccc13)C(=O)NC2=O,-4.41
5,CN(C)C(=O)Oc1cccc([N+](C)(C)C)c1,-2.66
6,Cc1ccc2c(c1)C(N1CCN(C)CC1)=Nc1cccnc1N2,3.01
7,O=C1C(SCCO)=C(SCCO)C(=O)c2ccccc21,-3.42
8,CC(C)C(=O)Nc1ccc([N+](=O)[O-])c(C(F)(F)F)c1,6.48
9,COc1c2c(nc3ccccc13)OC(C(C)(O)CO)C2 (centres undefined),2.81
10,N[C@H](C(=O)O)[C@H]1C[C@@H]1C(=O)O,12.2
11,COC(=O)C(N)Cc1ccc(Cl)cc1 (centres undefined),5.72
12,CCN1CCC[C@H]1CNC(=O)c1c(O)c(Cl)cc(Cl)c1OC,2.3
13,O=C(O)c1cccnc1C(=O)O,-0.64
14,Nc1ncnc2c1ncn2[C@@H]1O[C@H](CO)[C@H](O)C1O (some centres undefined),-1.88
15,COC(=O)C1=C(C)NC(C)=C(C(=O)OCCN(C)Cc2ccccc2)C1c1cccc([N+](=O)[O-])c1 (centres undefined),1.94
16,Cc1ccccc1C(OCCN(C)C)c1ccccc1 (centres undefined),4.97
17,CNC(=O)[C@H]1O[C@@H](n2cnc3c(NCc4ccc(N)cc4)ncnc32)C(O)[C@H]1O (some centres undefined),-4.59
18,CC(C)=CCC/C(C)=C/CC/C(C)=C/CSc1ccccc1C(=O)O,11
19,COc1ccc(NC(=O)c2ccc(-c3ccc(-c4noc(C)n4)cc3C)cc2)cc1N1CCN(C)CC1,3.73
20,CNc1ncnc2c1ncn2[C@@H]1O[C@H](CO)[C@H](O)C1O (some centres undefined),3.88
21,Cc1cnc(C(=O)NCCc2ccc(S(=O)(=O)NC(=O)NC3CCCCC3)cc2)cn1,8.86
22,COc1ccccc1N1CCN(CCCCNC(=O)c2ccc3ccccc3c2)CC1,-5.6
23,O=C(O)C1CN(CCCP(=O)(O)O)CCN1 (centres undefined),-8.49
24,O=c1cc(N2CCOCC2)oc2c(-c3ccccc3)cccc12,1.77
25,CC(C)NNC(=O)c1ccncc1,-8.03

row,SMILES,inhibition [%]
1,O=C(O)c1cc(=O)c2ccccc2[nH]1,6.26
2,CN1CCN2c3ccccc3Cc3ccccc3C2C1 (centres undefined),1.4
3,CC(=O)O[C@H]1C[C@@H]2CC[C@@H]3[C@H](CC[C@@]4(C)[C@H]3C[C@H]([N+]3(C)CCCCC3)[C@@H]4OC(C)=O)[C@@]2(C)C[C@@H]1[N+]1(C)CCCCC1,-4.44
4,Cc1nc2sccn2c(=O)c1CCN1CCC(=C(c2ccc(F)cc2)c2ccc(F)cc2)CC1,-0.91
5,CCN1C(=O)C=CC1=O,0.22
6,CCC1(C)CC(=O)NC1=O (centres undefined),0.13
7,Cc1nc2c([nH]1)c(=O)n(C)c(=O)n2Cc1ccco1,2.47
8,OC[C@H]1NC[C@@H](O)[C@@H]1O,-1.72
9,CC(C)[C@H](NC(=O)OCc1ccccc1)C(=O)N[C@H](C=O)Cc1ccccc1 (Cbz-Val-Phe-aldehyde),0.18
10,CCCCS(=N)(=O)CCC(N)C(=O)O (centres undefined),20.3
11,COc1cccc(OC)c1OCCNCC1CSc2ccccc2O1 (centres undefined),4.39
12,COc1cc(CNC(=O)CCCCCCC(C)C)ccc1O,-0.34
13,CCCCCCCCCCCCCCCCCCNC(=O)OCC(COP(=O)([O-])OCC[n+]1ccsc1)OC (centres undefined),-1.62
14,C=CCN1CCc2cc(O)c(O)cc2C(c2ccccc2)C1 (centres undefined),5.41
15,Nc1nc(N)c2nc(-c3ccccc3)c(N)nc2n1,5.21
16,CC(CN(C)C)CN1c2ccccc2CCc2ccccc21 (centres undefined),1.23
17,NC(=O)c1ccccc1,2.12
18,NC(N)=NC(N)=Nc1ccccc1,2.03
19,C[C@H](Cc1ccc(O)c(O)c1)[C@@H](C)Cc1ccc(O)c(O)c1,8.86
20,NCCc1ccc(O)c(O)c1,-1.26
21,O=C1NC(c2cccc([N+](=O)[O-])c2)=CCN1c1ccccc1O,-0.13
22,Nc1ncnc2c1ncn2C1CCCC1,3.39
23,CCCN(CC1CC1)c1nc(C)nc(Nc2c(Cl)cc(Cl)cc2Cl)c1Cl,2.53
24,O=C(O)c1cc2cc(F)ccc2[nH]1,-4.06
25,O=C(Nc1ccc([N+](=O)[O-])cc1Cl)c1cc(Cl)ccc1O,7.1

row,SMILES,inhibition [%]
1,CC12CC3CC(C)(C1)CC(N)(C3)C2,5.19
2,CC(N)=NCc1cccc(CN)c1,2.66
3,CNCC(O)c1ccc(O)c(O)c1 (centres undefined),6.11
4,c1cc(CN2CCCCC2)cc(OCCCNc2nc3ccccc3s2)c1,2.89
5,COc1ccc2c(c1)c(CC(=O)O)c(C)n2Cc1ccc(F)cc1,3.51
6,C1CCC(N=C(NC23CC4CC(CC(C4)C2)C3)N2CCOCC2)CC1,-5.94
7,NC1CCN(O)C1=O (centres undefined),34
8,O=C(O)CCC(C(=O)O)N1C(=O)c2ccccc2C1=O (centres undefined),2.55
9,CC(=O)Nc1nnc(S(N)(=O)=O)s1,6.81
10,O=c1ccn([C@@H]2O[C@H](COP(=O)(O)OP(=O)(O)O)[C@@H](O)[C@H]2O)c(=O)[nH]1,-1.24
11,CC(C(O)c1ccc(O)cc1)N1CCC(Cc2ccccc2)CC1 (centres undefined),1.47
12,Cc1ccc(OCC(O)C(C)NC(C)C)c2c1CCC2 (centres undefined),2.34
13,COc1ccc2c(c1)c(CC(=O)O)c(C)n2C(=O)c1ccccc1,1.38
14,C=C/C(C)=C/[C@@]1(C)SC(=O)C(C)=C1O,6.08
15,CCN(CC)CCOCCOC(=O)C1(c2ccccc2)CCCC1,3.69
16,O=C(c1cc(O)c(O)c([N+](=O)[O-])c1)c1ccccc1F,-5.94
17,Cc1cc(C(C)(C)C)cc(C)c1CC1=NCCN1,-1.05
18,O=c1[nH]ccc2c(O)cccc12,-1.51
19,CN(C)S(=O)(=O)c1ccc2c(c1)/C(=C/c1cc3c([nH]1)CCCC3)C(=O)N2,-3.56
20,CCCNC(=O)NS(=O)(=O)c1ccc(Cl)cc1,-2.53
21,NCCCCCC(=O)O,-8.76
22,CC12C(=O)OC(=O)C1(C)C1CCC2O1 (centres undefined),-6.49
23,CC(N)C1CCC(C(=O)Nc2ccncc2)CC1 (centres undefined),-2.72
24,NC1(C(=O)O)CC1,0.25
25,CCN(CC)C(=O)c1ccc(O)c(OC)c1,2.41

row,SMILES,inhibition [%]
1,O=C(c1ccc(F)cc1)C1CCN(CCn2c(=O)[nH]c3ccccc3c2=O)CC1,15.5
2,O=C1NCC2(CCN(CCc3ccccc3)CC2)O1,1.12
3,CSC(=N)N,-3.29
4,CC1CCN(CC[C@H]2CCCN2S(=O)(=O)c2cccc(O)c2)CC1,-1.55
5,COc1cc(C(O)CO)ccc1O (centres undefined),24.3
6,CN(C)CCC(c1ccc(Br)cc1)c1ccccn1 (centres undefined),-2.7
7,C[C@]12CCC(=O)C=C1CC[C@@H]1[C@@H]2CC[C@@]2(C)[C@H]1CC[C@]2(O)C(=O)CO,4.41
8,CC(=O)N[C@H](C(=O)O)C(C)(C)SN=O,0.14
9,CC(C)NCC(O)COc1ccc(CC(N)=O)cc1 (centres undefined),-8.18
10,CC1=NS(=O)(=O)c2cc(Cl)ccc2N1,-6.11
11,C[C@@]1(C2CCCC2)Cc2cc(OCC(=O)O)c(Cl)c(Cl)c2C1=O,1.68
12,Oc1cc2c(cc1O)C(c1ccccc1)CNCC2 (centres undefined),6.19
13,CN1CCN(CC(=O)N2c3ccccc3C(=O)Nc3cccnc32)CC1,-3.99
14,O=C(O)CCCC[C@@H]1CCSS1,-6.23
15,O=C1Nc2ccc(I)cc2/C1=C/c1cc(Br)c(O)c(Br)c1,40.6
16,CNC(=O)[C@H]1O[C@@H](n2cnc3c(NCc4ccc(I)cc4)nc(Cl)nc32)[C@H](O)[C@@H]1O,-3.68
17,CN(C)c1nc(N)c(C(=O)N=C(N)N)nc1Cl,-2.78
18,CN1C2CCC1CC(NC(=O)c1nn(C)c3ccccc13)C2 (centres undefined),2.78
19,CN(C)CC[C@@H](c1ccc(Br)cc1)c1ccccn1,1.77
20,C=C(C)C1CC=C(C(=O)O)CC1 (centres undefined),0.63
21,NCCCCN,-2.37
22,CCC1(O)CC2CN(CCc3c([nH]c4ccccc34)[C@@](C(=O)OC)(c3cc4c(cc3OC)N(C=O)C3[C@]45CCN4CC=C[C@@](CC)([C@@H](OC(C)=O)[C@]3(O)C(=O)OC)[C@H]45)C2)C1 (some centres undefined),-5.2
23,Oc1ccc(C2CNCc3sccc32)cc1O (centres undefined),-1.73
24,N=C(N)SCCc1ccc(CCSC(=N)N)cc1,-2.83

# Seven compounds picked at random from those above:
row,SMILES,inhibition [%]
4,c1cc(CN2CCCCC2)cc(OCCCNc2nc3ccccc3s2)c1,2.89
8,OC[C@H]1NC[C@@H](O)[C@@H]1O,-1.72
11,COc1cccc(OC)c1OCCNCC1CSc2ccccc2O1 (centres undefined),4.39
17,Cc1cc(C(C)(C)C)cc(C)c1CC1=NCCN1,-1.05
14,O=C(O)CCCC[C@@H]1CCSS1,-6.23
2,O=C1NCC2(CCN(CCc3ccccc3)CC2)O1,1.12
19,CCCn1cnc2c1c(=O)n(CCCCC(C)=O)c(=O)n2C,5.12

# From PubChem BioAssay AID694 (Emory University Molecular Libraries Screening Center, 2007)
